According to publication doi:10.1101/2024.11.27.625582:
No constants are given. Whether binding was seen depends on the method and setting. Binding seen in cells or lysates may run through a third protein. Here binding means that the protein was enriched with, or labelled near, the bait; the list need not be complete.

Biological target: YFP-tagged Rab2B^Q66L (active form, GTP-locked) (T. brucei)
Experiment: affinity purification with mass spectrometry

B1: heat shock protein HSP60 (protein, UniProt Q37683 9-562)
chain: GAKDIRFGTEARQSMLKGVQRAVEAVATTLGPKGRNVIIEQSYGAPKITKDGVTVAKSIEFKDPFENMGAQLVRQVCNKTNDLAGDGTTTSAVLVASIFSEGIKSIATGTNPIDMKRGMDRAVEVILKNIESQSRTVTNTENVVQVATISANGDVELGKLIGEAMEKVGKDGVITTQDGKTLTTELEVVEGMSVDRGYISPYFVTDAKTQKAELEDAFVLVSAKKLNNIHTILPVLNHVVRSGRPLLIIADDVESEALTTMIFNKLQGKLKIACVKAPGFGDNKAAMLQDIAIFSGACVVGEEGSGVELDAEKFEASILGSVKKATITKDDTVLLNGGGDVAMMKERVDLVRGLIERETSDYNREKLQERLAKLSGGVAVIRVGGASEVEVNEKKDRITDALCSTRAAVQEGIVPGGGPALLRASKALDGLLQDQSLTADQRTGVQIIRNAVRLPAHRIVANAGREGAVVVEKVLENTDAAVGYDAQLDRYVNMFEAGIIDPARVVRVALTDAASVASLMMTAEAAVVDLPKDDAPAAGGMGGMGGMGGMDGMY
binding: binds
